Our source for the binding values is patent EP4707298A2 (INSTITUTO BUTANTAN, dated 2026).

Sequences of proteins named here, by UniProt entry; tags and fusion partners are left off. Residues count along the entry.
UniProt P09038, residues 143-288: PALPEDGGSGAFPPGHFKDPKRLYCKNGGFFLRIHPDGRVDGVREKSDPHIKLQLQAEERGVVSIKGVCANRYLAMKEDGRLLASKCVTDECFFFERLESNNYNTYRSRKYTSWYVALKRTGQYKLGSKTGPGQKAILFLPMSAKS

These are yes or no findings as the source states them, for the method shown. Some entries that bind do so weakly or less than the wild type.

For the test, the target named is rFGF2 antigen (recombinant fibroblast growth factor 2) (UniProt P09038). Put plainly: SPR, antibody over immobilised rFGF2. For orientation: Surface plasmon resonance follows binding to a sensor surface in real time, without labels.

B1: human anti-FGF2 antibody 62K98H (antibody, human IgG1, V domains shown)
VH: QITLKESGPTLVKPTQTLTLTCTFSGFSLSTSGVGVGWIRQPPGEALEWLAVIHWNEANYYSPYLRSRLTITKDTSKNQMVLTVTNMDPVDTATYYCARGANSDSSGRLDAFDIWGQGTMVTVSS
VL: DVVMTQSPLSLPVTLGQPASISCRSSQSLIYSDGNTRLYWFHQRPGQSPRRLIYGVSNRDSGVPDRFSGSGSGTDFTLKISRVEAEDVGVYYCMQSTHWPHTFGQGTKLEIK
notes: Human IgG1 format (AbVec vectors with human gamma1 HC and kappa LC constant regions)
In the case of B1, the binding result is given as “binds”.

B2: human anti-FGF2 antibody 85L117H (antibody, human IgG1, V domains shown)
VH: QVQLVQSGAELKRPGSSVKVSCRASGDTFKNYAITWVRQAPGQGLEWVGGIDPLVGVPNYTHRFQGRVTITADEPTSTTYMEFRDLTSDDTAVYYCARGVRDQHWSYFDSWGQGTLVTVSS
VL: QSVLTQPPSASGTPGQTVNISCSGATSNIGGGSVNWYQQLPGAAPRLLIHSDNERASGVPDRFSGSKSGTSASLAISGLQSEDEADYFCASWDDSLDGHVVFGGGTKVTVL
notes: Human IgG1 format (AbVec vectors with human gamma1 HC and lambda LC constant regions)
On to B2, for which the binding result is on record as “binds”.
